Experimental data as given in PubChem BioAssay AID504467 (National Center for Advancing Translational Sciences (NCATS), 2011).
Among all 330,000 compounds or so, about 7,700 (2.3%) were called active. The shares of active, inactive and inconclusive entries below differ from those in the screen. The call rests on the fitted dose curve; in most records, active means well fitted inhibition curve with a large enough effect; inconclusive means small, poorly fitted or top-dose-only effect, or effect the other way; inactive means flat fitted curve, though single readings scatter. A potency beside an inconclusive call is a rough fit, not a confirmed value.

assay: qHTS screen for small molecules that inhibit ELG1-dependent DNA repair in human embryonic kidney (HEK293T) cells expressing luciferase-tagged ELG1; conditions: HEK293T ELG1-luciferase reporter, luminescence, 16 h, DNA damage induced by 5-fluorouridine; activity change, negative = inhibition: at 46.1 µM (top of the series); further: nearly all actives have a fitted effect of over 55% in size
In short: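 HEK293T cells expressing luciferase-tagged ELG1 (2,000/well) received 5-Fluorouridine plus compound or DMSO for 16 hr at 37 °C. Luciferase was read by ONE-Glo luminescence after 30 min at room temperature.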
On the % scale 0 is the no-effect control and ±100 the full control effect; potency means the concentration at half of the fitted maximal effect.

SMILES	activity change, negative = inhibition	Potency
CC(=O)N1CCN(c2ccc([N+](=O)[O-])c(-n3nc(C)cc3C)c2)CC1	inactive: 2.58%	
CC1(c2ccc(OC(F)F)cc2)NC(=O)N(CC(=O)Nc2ccccc2)C1=O (stereo unspecified)		inconclusive: 23.1 µM [activator, single point]
CC(/C=N/n1c(-c2ccncc2)n[nH]c1=S)=C\c1ccco1		active: 2.59 µM
COc1ccc(C2C(C(C)=O)=C(O)C(=O)N2CCc2ccccc2)c(OC)c1 (stereo unspecified)		inconclusive: 29.1 µM [inhibitor, single point]
COc1ccc(NC(=O)c2c(NC(=O)CNCc3ccco3)sc3c2CCC3)c(OC)c1		inconclusive: 5.8 µM [inhibitor, partial curve]
COc1cc(F)cc(C2=CC(=O)C[C@H](c3ccc(F)cc3)C2)c1		inconclusive: 23.1 µM [inhibitor, single point]
O=S(=O)(NC1CCc2ccccc21)c1ccc(S(=O)(=O)N2CCCC2)cc1 (stereo unspecified)		active: 25.9 µM
COc1cccc2cc(C(=O)C3=C(O)C(=O)N(c4cc(C)on4)C3c3cccs3)oc12 (stereo unspecified)	inactive: 0.794%	
CCOC(=O)Cc1cc(=O)[nH]c(/N=C(\N)Nc2ccc(C)c(C)c2)n1	inactive: -20.8%	
COc1ccc(O[C@H]2C=C[C@@H](c3ccccc3)O[C@@H]2COC(=O)CC/C(C)=N/O[C@@H](C)CN2CCCCc3nc(C)c(C)cc32)cc1		inconclusive: 29.1 µM [inhibitor, single point]
O=C(O)Cc1ccc(NS(=O)(=O)c2c(Cl)cccc2Cl)cc1	inactive: 6.36%	
O=C(CCl)NCCCN(C(=O)C(Cl)Cl)c1ccc([N+](=O)[O-])cc1		inconclusive: 2.31 µM [inhibitor, single point]
O=C(CN1CCCC1)Nc1ccc(OC(F)(F)F)cc1		inconclusive: 29.1 µM [activator, single point]
Cc1ccc(C)c(N2CCN(C(=O)CCCN3C(=S)NC(C)(C)CC3C)CC2)c1 (stereo unspecified)		inconclusive: 3.26 µM [inhibitor, partial curve, poor fit]
NS(=O)(=O)c1ccc(Nc2ccc3cc(S(=O)(=O)N4CCCCC4)ccc3n2)cc1	inactive: -7.84%	
O=C(Nc1cccnc1)c1ccc(Oc2ccccc2)cc1		inconclusive: 4.61 µM [activator, partial curve]
CC(=O)Nc1ccc(NC(=O)c2cc(C)nn2-c2ccccc2)cc1	inactive: 4.94%	
Cc1ccc2nc(-c3ccncc3)cc(C(=O)Nc3ccc(OC(F)F)cc3)c2c1		inconclusive: 29.1 µM [inhibitor, single point]
COC(=O)c1ccccc1N=Nc1c(N)n[nH]c1N	inactive: 6.35%	
CC(C)CCNC(=O)/C=C/c1ccc(Br)cc1		inconclusive: 25.9 µM [activator, single point]
Cc1ccccc1-n1c(C)nnc1SCC(=O)N(C)C1CCS(=O)(=O)C1 (stereo unspecified)	inactive: 21.2%	
CS(=O)(=O)N1N=C(c2ccco2)CC1c1ccc(Br)cc1 (stereo unspecified)		inconclusive: 13 µM [activator, partial curve]
C[C@@H](C(=O)Nc1ccc2c(c1)OCCO2)n1c(=O)[nH]c2ccccc2c1=O		inconclusive: 9.2 µM [activator, partial curve]

Structural class, the entries above containing a furan ring, fused or not (four)
SMILES	activity change, negative = inhibition	Potency
CC(/C=N/n1c(-c2ccncc2)n[nH]c1=S)=C\c1ccco1		active: 2.59 µM
COc1ccc(NC(=O)c2c(NC(=O)CNCc3ccco3)sc3c2CCC3)c(OC)c1		inconclusive: 5.8 µM [inhibitor, partial curve]
COc1cccc2cc(C(=O)C3=C(O)C(=O)N(c4cc(C)on4)C3c3cccs3)oc12 (stereo unspecified)	inactive: 0.794%	
CS(=O)(=O)N1N=C(c2ccco2)CC1c1ccc(Br)cc1 (stereo unspecified)		inconclusive: 13 µM [activator, partial curve]

Remaining list, next part:

SMILES	activity change, negative = inhibition	Potency
CCOC(=O)N1CCN(C(=O)CSCC(=O)Nc2nc(-c3ccc4c(c3)OCO4)cs2)CC1		inconclusive: 18.4 µM [activator, partial curve]
CCOc1ccccc1NC(=O)CN(c1ccc(C)cc1)S(=O)(=O)c1c(C)noc1C		inconclusive: 35.5 µM [inhibitor, single point]
CCN(CC)CCN(C(=O)C1=COCCO1)c1nc2ccc(C)cc2s1		inconclusive: 23.1 µM [activator, single point]
CC1SC(=NC(=O)c2ccncc2)NC1=O (stereo unspecified)	inactive: -5.37%	
O=C(c1ccc(CSc2ccc(Cl)cc2)cc1)N1CCOCC1	inactive: -9.51%	
COc1cccc(-c2cc(C(=O)N3CCCCC3C)no2)c1 (stereo unspecified)		inconclusive: 8.2 µM [activator, partial curve]
Cc1c(CCO)c(=O)[nH]n1C(=O)c1ccc(F)cc1		inconclusive: 18.4 µM [activator, single point]
CCOc1ccc(C2=Nn3c(nnc3-c3ccc(OC)cc3)SC2)cc1		inconclusive: 13 µM [inhibitor, partial curve]
COc1cc(C(=O)NC2CCCc3ccccc32)cc(OC)c1C (stereo unspecified)	inactive: -2.17%	
CSC1=NSC2=NC(=O)/C(=C\c3cccs3)C(=N)N12		inconclusive: 9.2 µM [activator, partial curve]
Cc1cn([C@H]2C[C@H](O)[C@@H](CCC(=O)NCCN3CCCCC3)O2)c(=O)[nH]c1=O	inactive: 3.37%	
O=C(NCCOc1ccccc1)C(=O)NCC1CCCO1 (stereo unspecified)		inconclusive: 20.6 µM [activator, partial curve]
CC(Sc1nnc(-c2ccccc2F)o1)C(=O)Nc1ccc(N2CCOCC2)cc1 (stereo unspecified)		inconclusive: 18.3 µM [activator, partial curve, poor fit]
COc1ccccc1CN1CCNC(=O)C1CC(=O)NCCCN1CCCC1=O (stereo unspecified)		inconclusive: 23.1 µM [activator, single point]
O=c1[nH]c(CSc2ccccn2)nc2ccccc12		inconclusive: 7.3 µM [activator, partial curve]
O=[N+]([O-])c1ccc(N/N=C/c2ccc[nH]2)cc1	inactive: 28.3%	
CCCCCn1c(CN2CCN(C(=O)c3ccco3)CC2)nc2c1c(=O)n(C)c(=O)n2C	inactive: -1.92%	
CC(C)n1c(-c2ccc(N(C)C)cc2)nc2ccccc21		inconclusive: 8.2 µM [activator, partial curve]
CC(=O)NCc1ccc(-c2csc(-c3cccs3)n2)cc1		inconclusive: 20.6 µM [activator, partial curve]
O=C1CCCCN1CC(=O)N1CCCC(Nc2ccc(F)c(F)c2)C1 (stereo unspecified)	inactive: 18.9%	
O=C(CSc1nccn1-c1ccccc1)NO	inactive: 6.18%	
CCn1c(=O)c2cc(C(=O)NCCCOC)sc2c2ccccc21		inconclusive: 5.17 µM [activator, single point]
O=C(Cc1ccccc1)Nc1ccccc1C(=O)N1CCCCC1		inconclusive: 29.1 µM [activator, partial curve, poor fit]
